Source: PubChem BioAssay AID1487 (National Center for Advancing Translational Sciences (NCATS), 2009)
Hit rate of the full screen: of about 200,000 compounds, about 25 (0.01%) were called active. The inconclusive results got no clear call from the source; some entries with a clear call stand among them for comparison. The call rests on the fitted dose curve; in most records, active means well fitted inhibition curve with a large enough effect in the signal ratio, with a control signal flat (not every such curve was filed as active); inconclusive means small, poorly fitted or top-dose-only effect, or effect the other way, or a change in a side signal; inactive means flat fitted curve, though single readings scatter; the % refers to the signal ratio. Potencies of inconclusive entries are doubtful fits and often do not repeat.

assay: qHTS Assay for Modulators of Lamin A Splicing; details: HeLa LMNA splicing GFP/RFP minigene ratio, 48 h; ratio change, negative = inhibition: at 46.1 µM (top of the series) unless noted
Summary of the method: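 S3 HeLa cells stably expressing lamin A-EGFP splicing minigene plus DsRed2, 600 cells/well, 48 h compound exposure at 37C. Laser-scanning cytometry; analysed as GFP (500-530 nm)/RFP (575-640 nm) total intensity ratio; 0.5% DMSO vehicle.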
On the % scale 0 is the no-effect control and ±100 the full control effect; potency means the concentration at half of the fitted maximal effect.

SMILES	ratio change, negative = inhibition	Potency
Cc1ccsc1C(=O)OCC(=O)N1CCN(C(=O)c2ccco2)CC1	inactive: -23.7% [at 46 µM]	
Cc1sc(NC(=O)CN2CCOCC2)nc1-c1ccc2c(c1)CCN2S(=O)(=O)c1ccccc1		inconclusive: 2.82 µM [falling, full curve]
Cc1ccc(-c2nnc3sc(CCc4ccccc4)nn23)cc1	inactive: -2.05%	
CCN1CCN(C(=O)N2CCOCC2)CC1	inconclusive: 4.3% [at 46 µM]	
Cc1c(-c2ccccc2)nc2ccccc2c1C(=O)NCc1cccs1	inactive: -13.9%	
CCOC(=O)c1sc(NC(=O)Nc2ccccc2)cc1C	inconclusive: -36.6%	
Cc1ccc2c(CC(=O)NCc3ccco3)coc2c1C	inconclusive: -35.1%	
CCCCCCCCCn1c2c(c(=N)c3c1CCC3)CCC2	inconclusive: -27.5%	
COc1ccc2nc(/C(C#N)=C\c3ccc(Oc4ccc([N+](=O)[O-])cn4)cc3)[nH]c2c1	inconclusive: 5.11%	
COCCCNC(=O)c1nc2c(nnn2Cc2cc(C)ccc2C)c(=O)[nH]1	inactive: -12.9%	
CCC(=O)N1N=C(c2cccc(NS(C)(=O)=O)c2)CC1c1cccs1 (stereo not given)	inactive: -6.95%	
Cc1ccccc1C(=O)OCCN(C)Cc1ccccc1	inconclusive: -7.64% [at 46 µM]	
O=S(=O)(NCC(Nc1ccc(Cl)cc1)c1ccccc1)c1ccccc1 (stereo not given)	inconclusive: -31%	
O=C(N1CCCCC1)N1CCN(C(=O)N(c2ccccc2)c2ccccc2)CC1	inactive: -0.305%	
O=C(CSc1nc2c([nH]c3ccccc32)c(=O)n1-c1ccc(Cl)cc1)N1CCCC1	inactive: -5.03% [at 46 µM]	
COC(=O)c1oc2ccc(Br)cc2c1-n1cccc1	inconclusive: 18.7%	
Cc1[nH]c2ccccc2c1C(=O)COC(=O)c1c(-c2ccccc2Cl)noc1C		inconclusive: 25.1 µM [falling, single point]
O=C(Nc1ccc2nc(SCC(=O)N3CCCc4ccccc43)sc2c1)c1ccccc1	inconclusive: -20.8% [at 46 µM]	
COC(=O)c1[nH]c2ccc(Cl)cc2c1NC(=O)Oc1ccccc1	inactive: -1.05%	
CCC(CC)C(=O)Nc1nc2c(s1)CC(C)CC2 (stereo not given)	inconclusive: 29.9% [at 46 µM]	
N#C/C(=C/c1cn(-c2ccccc2)nc1-c1cccc(OCc2ccc(F)cc2)c1)C(=O)NCCCn1ccnc1		inconclusive: 35.5 µM [cytotoxic, single point]
CCOC(=O)C(=O)Nc1ccc(OCc2ccccc2)cc1	inactive: -3.79% [at 46 µM]	
O=C(Nc1ccc(F)cc1)C(c1ccccc1)N1CCN(S(=O)(=O)c2ccccc2)CC1 (stereo not given)	inactive: -14.9%	
Nc1nc(N)c2cc(Sc3ccc4ccccc4c3)ccc2n1		inconclusive: 35.5 µM [cytotoxic, single point]
Cc1cc2ccccn2c1C(C[N+](=O)[O-])c1ccc(N(C)C)cc1 (stereo not given)	inconclusive: 5.14%	
Cc1ccc(-n2c(Cc3cccn3C)nnc2SCC(=O)N2CCc3ccccc32)cc1	inconclusive: 38%	
CC1=C(C(=O)OCC(C)C)C(c2ccc(F)cc2)NC(=O)N1 (stereo not given)	inconclusive: 8.06%	
Cc1cc2nc3c(=O)[nH]c(=O)nc-3n(CC(O)C(O)C(O)CO)c2cc1C (stereo not given)	inconclusive: 1.64%	

SMILES	ratio change, negative = inhibition	Potency
O=C(N/N=C/c1c(O)ccc2ccccc12)c1ccc[n+](CCO)c1	inconclusive: -27.8% [at 46 µM]	
CCn1c(SCC(=O)NCc2ccco2)nnc1-c1c[nH]c2ccccc12	inactive: -5.74%	
Fc1ccc(/C=N/Nc2ncnc3nc[nH]c23)cc1F	inconclusive: 5.16%	
Cc1ccc2ccccc2[n+]1CCCS(=O)(=O)[O-]	inconclusive: -1.15%	
COC(=O)C1=C(Nc2ccc(C)cc2)C=C(C)C(C(=O)OC)C1c1ccc(OC)cc1 (stereo not given)	inconclusive: -16.3%	
CC(=O)Nc1ncc(Cc2cc(Cl)ccc2Cl)s1		inconclusive: 11.2 µM [activator, partial curve]
CCCCn1c(O)c(/C=C/C=C/C=Nc2ccccc2)sc1=S	inconclusive: 15.5% [at 9.22 µM]	
CC(C)CC(NS(=O)(=O)c1cc(C(=O)O)ccc1Cl)C(=O)O (stereo not given)	inconclusive: -8.82% [at 46 µM]	
COC(=O)c1cc(C(=O)N2CCN(c3cccc(Cl)c3)CC2)cc([N+](=O)[O-])c1	inconclusive: -33.7% [at 46 µM]	
Cn1nnc2ccccc2c1=O	inactive: 2.56% [at 46 µM]	
Fc1cccc(Cl)c1/C=N/Nc1ccccn1	inactive: -12.9% [at 46 µM]	
COc1ccnc(N2CCN(c3ccc(Cl)cc3)CC2)c1C#N	inconclusive: -0.32%	
CCOC(=O)c1ccc(N2C(=O)C3C(C2=O)C(C(=O)c2ccc(Cl)cc2)N2CCCC32)cc1 (stereo not given)	inactive: -11.9%	
Cc1nc(-c2ccc(S(=O)(=O)NCc3ccc(N(C)C)cc3)cc2)co1	inconclusive: -18.6% [at 46 µM]	
Nc1c(Br)cc2oc(-c3ccccc3)nc2c1Br	inactive: -16.3%	
O=C1CC(c2cccc(Cl)c2)CC(O)=C1C=NC1CCCC1 (stereo not given)	inconclusive: 5.21%	
COc1ccccc1C1CCCN1Cc1nc(-c2ccc(C)s2)oc1C (stereo not given)		inconclusive: 7.08 µM [inhibitor, partial curve]
Cc1ccc(C2c3[nH]c4ccccc4c3CCN2C(=O)CCC2CCCC2)cc1 (stereo not given)		inconclusive: 3.55 µM [falling, full curve]
Cc1onc(-c2c(F)cccc2Cl)c1C(=O)Nc1ccc(S(=O)(=O)Nc2ncccn2)cc1	inactive: -3.73%	
Cc1ccc(NC(=O)Cn2ccn(-c3ccc(F)c(F)c3)c(=O)c2=O)cc1C	inactive: 13.9% [at 46 µM]	
Cc1ccc(Cl)cc1-n1ncc2c(Nc3cccc(C)c3C)ncnc21	inconclusive: -5.32% [at 46 µM]	
Cc1ccn2cc(C(=O)Nc3ccccc3N3CCOCC3)nc2c1	inconclusive: 7.16%	
O=C(Nc1cc(=O)[nH]c2ncnn12)c1ccccc1Cl	inconclusive: 13.8%	
CN1CCN(C(=O)NC2CCCCC2)CC1	inactive: -8.57%	
Cc1cc2c(n1-c1ccc(C(=O)NCc3ccc(OC(C)C)cc3)cc1)CCCC2	inconclusive: -6.69% [at 46 µM]	
CC1=C(CC(=O)c2ccccc2)C(=O)c2ccccc2C1=O		inconclusive: 35.5 µM [cytotoxic, single point]
CCOC(=O)C1(CCCc2ccccc2)CCN(C(=O)CCn2cncn2)CC1	inconclusive: 30% [at 46 µM]	

Nothing new here: entries from further up.
SMILES	ratio change, negative = inhibition	Potency
Cc1ccn2cc(C(=O)Nc3ccccc3N3CCOCC3)nc2c1	inconclusive: 7.16%	
O=C(Nc1cc(=O)[nH]c2ncnn12)c1ccccc1Cl	inconclusive: 13.8%	

Pulled by compound from the entries so far:
SMILES	ratio change, negative = inhibition	Potency
CN1CCN(C(=O)NC2CCCCC2)CC1	inactive: -8.57%	
CCOC(=O)c1ccc(N2C(=O)C3C(C2=O)C(C(=O)c2ccc(Cl)cc2)N2CCCC32)cc1 (stereo not given)	inactive: -11.9%	
